Data: paper PMC10945332 (Theranostics, 2024)

Assay: general procedure: Fmoc solid-phase peptide synthesis; Rink amide resin (0.8 mmol/g; ChemPep); DIC/Oxyma
Conditions: whole synthesis; for final HPLC purity: Analytical HPLC, Kinetex C18 XB 5µm 4.6x150mm, 15-90% MeCN in water containing 0.1% formic acid over 10 min

With “H-[dE][dE][dE][dE][dE][dA]AY[Sar]W[NMeNle]D[1Nal]-NH2 (SMILES CCCC[C@@H](C(=O)N[C@@H](CC(=O)O)C(=O)N[C@@H](Cc1cccc2ccccc12)C(N)=O)N(C)C(=O)[C@H](Cc1c[nH]c2ccccc12)NC(=O)CN(C)C(=O)[C@H](Cc1ccc(O)cc1)NC(=O)[C@H](C)NC(=O)[C@@H](C)NC(=O)[C@@H](CCC(=O)O)NC(=O)[C@@H](CCC(=O)O)NC(=O)[C@@H](CCC(=O)O)NC(=O)[C@@H](CCC(=O)O)NC(=O)[C@H](N)CCC(=O)O)” the difficulty met was “led to increased product aggregation and lower overall yield post-purification”, the isolated yield was 22.32% and the “final HPLC purity” value was >95%.

With “H-[dE][dA][dE][dE][dE][dE]AY[Sar]W[NMeNle]D[1Nal]-NH2 (SMILES CCCC[C@@H](C(=O)N[C@@H](CC(=O)O)C(=O)N[C@@H](Cc1cccc2ccccc12)C(N)=O)N(C)C(=O)[C@H](Cc1c[nH]c2ccccc12)NC(=O)CN(C)C(=O)[C@H](Cc1ccc(O)cc1)NC(=O)[C@H](C)NC(=O)[C@@H](CCC(=O)O)NC(=O)[C@@H](CCC(=O)O)NC(=O)[C@@H](CCC(=O)O)NC(=O)[C@@H](CCC(=O)O)NC(=O)[C@@H](C)NC(=O)[C@H](N)CCC(=O)O)” the difficulty met was “led to increased product aggregation and lower overall yield post-purification”, the isolated yield was 21.68% and the “final HPLC purity” value was >95%.

In the case of “H-[dE][dE][dE][dA][dE][dE]AY[Sar]W[NMeNle]D[1Nal]-NH2 (SMILES CCCC[C@@H](C(=O)N[C@@H](CC(=O)O)C(=O)N[C@@H](Cc1cccc2ccccc12)C(N)=O)N(C)C(=O)[C@H](Cc1c[nH]c2ccccc12)NC(=O)CN(C)C(=O)[C@H](Cc1ccc(O)cc1)NC(=O)[C@H](C)NC(=O)[C@@H](CCC(=O)O)NC(=O)[C@@H](CCC(=O)O)NC(=O)[C@@H](C)NC(=O)[C@@H](CCC(=O)O)NC(=O)[C@@H](CCC(=O)O)NC(=O)[C@H](N)CCC(=O)O)”, the isolated yield was 36.64% and the “final HPLC purity” value was >95%.

With “H-[dE][dE][dA][dE][dE][dE]AY[Sar]W[NMeNle]D[1Nal]-NH2 (SMILES CCCC[C@@H](C(=O)N[C@@H](CC(=O)O)C(=O)N[C@@H](Cc1cccc2ccccc12)C(N)=O)N(C)C(=O)[C@H](Cc1c[nH]c2ccccc12)NC(=O)CN(C)C(=O)[C@H](Cc1ccc(O)cc1)NC(=O)[C@H](C)NC(=O)[C@@H](CCC(=O)O)NC(=O)[C@@H](CCC(=O)O)NC(=O)[C@@H](CCC(=O)O)NC(=O)[C@@H](C)NC(=O)[C@@H](CCC(=O)O)NC(=O)[C@H](N)CCC(=O)O)” the isolated yield was 37.56% and the “final HPLC purity” value was 94%.

[ ]: non-standard residue; d: D form. 1Nal = N[C@@H](Cc1cccc2ccccc12)C(=O)O; NMeNle = CCCC[C@H](NC)C(=O)O; Sar = CNCC(=O)O
